Measured values taken from the supplement of paper PMC9233669.
Variants at the background level are over-represented here.

Key:
biotinyl-Ile-oxazolone = assay: self-aminoacylation, catalytic enhancement (BIO) (fold over background); higher = more active; k-Seq, kA / k0A0; sequences stand for … in GGGAAUGGAUCCACAUCUACGAAUUC…UUCACUGCAGACUUGACGAAGCUG
Procedure, shortened: (§1)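 Catalytic enhancement equals the median kA over the uncatalyzed rate, the latter read from the low-activity peak of a bimodal Gaussian fit. Values of kA came from fitting each sequence's fraction reacted to a pseudo-first-order model, with 1000 bootstraps. Reacted RNA was captured with streptavidin and quantified by triplicate qPCR and Illumina sequencing after 90 minutes at room temperature with 2–1250 μM biotinyl-aminoacyl-oxazolone and 0.43 μM mutagenized RNA pools bearing a 21-nt variable region.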

biotinyl-Leu-oxazolone = assay: self-aminoacylation, catalytic enhancement (BLO) (fold over background); higher = more active; k-Seq, kA / k0A0; sequences stand for … in GGGAAUGGAUCCACAUCUACGAAUUC…UUCACUGCAGACUUGACGAAGCUG
Procedure, shortened: as §1

biotinyl-Trp-oxazolone = assay: self-aminoacylation, catalytic enhancement (BWO) (fold over background); higher = more active; k-Seq, kA / k0A0; sequences stand for … in GGGAAUGGAUCCACAUCUACGAAUUC…UUCACUGCAGACUUGACGAAGCUG
Procedure, shortened: as §1

biotinyl-Met-oxazolone = assay: self-aminoacylation, catalytic enhancement (BMO) (fold over background); higher = more active; k-Seq, kA / k0A0; sequences stand for … in GGGAAUGGAUCCACAUCUACGAAUUC…UUCACUGCAGACUUGACGAAGCUG
Procedure, shortened: as §1

biotinyl-Phe-oxazolone = assay: self-aminoacylation, catalytic enhancement (BFO) (fold over background); higher = more active; k-Seq, kA / k0A0; sequences stand for … in GGGAAUGGAUCCACAUCUACGAAUUC…UUCACUGCAGACUUGACGAAGCUG
Procedure, shortened: as §1

biotinyl-Val-oxazolone = assay: self-aminoacylation, catalytic enhancement (BVO) (fold over background); higher = more active; k-Seq, kA / k0A0; sequences stand for … in GGGAAUGGAUCCACAUCUACGAAUUC…UUCACUGCAGACUUGACGAAGCUG
Procedure, shortened: as §1

Sequence | self-aminoacylation (biotinyl-Ile-oxazolone) | self-aminoacylation (biotinyl-Leu-oxazolone) | self-aminoacylation (biotinyl-Trp-oxazolone) | self-aminoacylation (biotinyl-Met-oxazolone) | self-aminoacylation (biotinyl-Phe-oxazolone) | self-aminoacylation (biotinyl-Val-oxazolone)
AUUAACCCGGUCAUCGAGUGA [Fam2.1 aminoacylation ribozyme variant] | 3.71 | 7.87 | 9.1 | 7.21 | 54.5 | 4.15
AUUAACCUACGUCAUCGGGUG [Fam2.2 aminoacylation ribozyme variant] | 3.99 | 8.3 | 5.8 | 6.52 | 47.5 | 3.84
AUUACACUGGUCAUCGAGAGA [Fam2.1 aminoacylation ribozyme variant] | 1.06 | 1.13 | 1.01 | 0.855 | 0.54 | 1.3
AUUACCAUGGUCAUCGACUGA [Fam2.1 aminoacylation ribozyme variant] | 0.883 | 0.988 | 0.97 | 0.963 | 0.498 | 0.731
AUUACCAUGGUCAUCGAGUUA [Fam2.1 aminoacylation ribozyme variant] | 1.17 | 0.836 | 0.506 | 1.02 | 0.747 | 1.21
AUUACCAUGGUCCUCGAGUGA [Fam2.1 aminoacylation ribozyme variant] | 2.48 | 5.83 | 4.82 | 4.88 | 29.3 | 2.68
AUUACCCAGGCCAUCGAGUGA [Fam2.1 aminoacylation ribozyme variant] | 1.85 | 2.69 | 1.61 | 2.52 | 11 | 1.92
AUUACCCAGGUCAUCGAAUGA [Fam2.1 aminoacylation ribozyme variant] | 0.908 | 1.02 | 0.73 | 1.03 | 0.861 | 1.07
AUUACCCAGGUCAUCGAGAGA [Fam2.1 aminoacylation ribozyme variant] | 0.939 | 0.841 | 0.784 | 0.852 | 0.893 | 1.07
AUUACCCCGGUCAUCGGGUGA [Fam2.1 aminoacylation ribozyme variant] | 5.57 | 15.9 | 12.7 | 14.4 | 103 | 7.32
AUUACCCGGGUCAUCGAUUGA [Fam2.1 aminoacylation ribozyme variant] | 1.14 | 1.09 | 1.57 | 0.871 | 1.14 | 0.962
AUUACCCUAGUCAUCGAGAGA [Fam2.1 aminoacylation ribozyme variant] | 0.875 | 0.689 | 1.13 | 0.422 | 0.623 | 0.684
AUUACCCUCGUCCUCGAGUGA [Fam2.1 aminoacylation ribozyme variant] | 2.48 | 5.49 | 6.18 | 4.67 | 34.7 | 2.4
AUUACCCUGGACAUCGUGUGA [Fam2.1 aminoacylation ribozyme variant] | 1.39 | 2.45 | 2.5 | 2.41 | 10.9 | 1.44
AUUACCCUGGUAAUCGAAUGA [Fam2.1 aminoacylation ribozyme variant] | 1 | 0.788 | 0.45 | 0.935 | 0.469 | 0.971
AUUACCCUGGUAAUCGAGUGA [Fam2.1 aminoacylation ribozyme variant] | 3.7 | 8.46 | 9.96 | 8.63 | 54.5 | 3.82
AUUACCCUGGUAAUCGAGUUA [Fam2.1 aminoacylation ribozyme variant] | 1.16 | 0.991 | 0.726 | 1.13 | 0.821 | 1.15
AUUACCCUGGUCAACGAGCGA [Fam2.1 aminoacylation ribozyme variant] | 1.49 | 1.14 | 0.589 | 1.04 | 0.989 | 1.4
AUUACCCUGGUCACCGAUUGA [Fam2.1 aminoacylation ribozyme variant] | 0.935 | 0.865 | 0.621 | 0.698 | 0.74 | 0.943
AUUACCCUGGUCAUCGAAUCA [Fam2.1 aminoacylation ribozyme variant] | 0.88 | 0.853 | 0.463 | 0.861 | 0.559 | 0.822
AUUACCCUGGUCAUCGACUAA [Fam2.1 aminoacylation ribozyme variant] | 0.759 | 0.975 | 0.924 | 0.713 | 0.642 | 0.782
AUUACCCUGGUCAUCGAGAGC [Fam2.1 aminoacylation ribozyme variant] | 0.723 | 0.791 | 0.61 | 0.723 | 1.03 | 0.834

Sequence | self-aminoacylation (biotinyl-Ile-oxazolone) | self-aminoacylation (biotinyl-Leu-oxazolone) | self-aminoacylation (biotinyl-Trp-oxazolone) | self-aminoacylation (biotinyl-Met-oxazolone) | self-aminoacylation (biotinyl-Phe-oxazolone) | self-aminoacylation (biotinyl-Val-oxazolone)
AUUACCCUGGUCAUCGAGUAU [Fam2.1 aminoacylation ribozyme variant] | 8 | 23.6 | 24.4 | 26.9 | 97.7 | 9.24
AUUACCCUGGUCAUCGAGUCC [Fam2.1 aminoacylation ribozyme variant] | 0.721 | 0.824 | 0.613 | 0.77 | 0.596 | 0.772
AUUACCCUGGUCAUCGAUUGA [Fam2.1 aminoacylation ribozyme variant] | 0.93 | 1.02 | 0.85 | 0.987 | 1.01 | 0.997
AUUACCCUGGUCAUCGUGUCA [Fam2.1 aminoacylation ribozyme variant] | 0.67 | 0.607 | 1.04 | 0.742 | 0.482 | 0.835
AUUACCCUGGUCAUCGUGUGG [Fam2.1 aminoacylation ribozyme variant] | 0.742 | 0.851 | 0.556 | 0.727 | 2.9 | 0.947
AUUACCCUGGUCAUGGAGAGA [Fam2.1 aminoacylation ribozyme variant] | 0.877 | 1.2 | 1.77 | 0.941 | 1.19 | 1.18
AUUACCCUGGUCAUUGACUGA [Fam2.1 aminoacylation ribozyme variant] | 0.921 | 0.592 | 0.357 | 0.623 | 0.473 | 0.929
AUUACCCUGGUCCUCGAGUCA [Fam2.1 aminoacylation ribozyme variant] | 0.852 | 0.792 | 0.7 | 0.922 | 1.17 | 1.12
AUUACCCUGGUCUUCGAGUCA [Fam2.1 aminoacylation ribozyme variant] | 0.953 | 0.903 | 0.688 | 0.844 | 0.638 | 0.873
AUUACCCUGUUCAUCGUGUGA [Fam2.1 aminoacylation ribozyme variant] | 3.1 | 6.24 | 8.71 | 6.29 | 43.7 | 3.04
AUUACCCUUGUCAUCGAGUUA [Fam2.1 aminoacylation ribozyme variant] | 1.04 | 0.851 | 0.71 | 1.07 | 0.904 | 0.992
AUUACCGUGCUCAUCGAGUGA [Fam2.1 aminoacylation ribozyme variant] | 1.7 | 2.64 | 3.33 | 2.12 | 2.01 | 1.68
AUUACCGUGGUCAACGAGUGA [Fam2.1 aminoacylation ribozyme variant] | 3.61 | 7.25 | 9.2 | 6.41 | 36.7 | 4.21
AUUACCGUGGUCAUCGAGUUA [Fam2.1 aminoacylation ribozyme variant] | 1.09 | 0.897 | 0.691 | 0.946 | 0.524 | 1.02
AUUACCUUCGUCAUCGAGUGA [Fam2.1 aminoacylation ribozyme variant] | 1.76 | 2.18 | 2.15 | 2.22 | 2.48 | 1.67
AUUACCUUGGUCAGCGAGUGA [Fam2.1 aminoacylation ribozyme variant] | 3.26 | 5.38 | 6.84 | 5.05 | 21.5 | 3.08
AUUACGGUGGUCAUCGAGUGA [Fam2.1 aminoacylation ribozyme variant] | 2.44 | 2.56 | 3.24 | 2.68 | 5.75 | 2.09
AUUACUCCGGUCAUCGAGUGA [Fam2.1 aminoacylation ribozyme variant] | 2.81 | 5.43 | 5.76 | 5.22 | 16 | 2.64
AUUACUCUUGUCAUCGAGUGA [Fam2.1 aminoacylation ribozyme variant] | 3.58 | 6.33 | 7.7 | 6.03 | 22 | 3.45
AUUAGCCUGGUCAUCGAGAGA [Fam2.1 aminoacylation ribozyme variant] | 1.63 | 1.43 | 1.35 | 1.08 | 1.49 | 1.25
AUUAUCCCGGUCAUCGAGUGA [Fam2.1 aminoacylation ribozyme variant] | 4.32 | 10.6 | 11 | 8.46 | 61.2 | 4.35
